Source: paper PMC9239253
No constants are given. Whether binding was seen depends on the method and setting. In cells and extracts the contact can be indirect. Some binding calls cover weakened binding; strength is not graded here.

Amino acid sequences for entries named in this document (tags omitted).
UniProt Q9Y572: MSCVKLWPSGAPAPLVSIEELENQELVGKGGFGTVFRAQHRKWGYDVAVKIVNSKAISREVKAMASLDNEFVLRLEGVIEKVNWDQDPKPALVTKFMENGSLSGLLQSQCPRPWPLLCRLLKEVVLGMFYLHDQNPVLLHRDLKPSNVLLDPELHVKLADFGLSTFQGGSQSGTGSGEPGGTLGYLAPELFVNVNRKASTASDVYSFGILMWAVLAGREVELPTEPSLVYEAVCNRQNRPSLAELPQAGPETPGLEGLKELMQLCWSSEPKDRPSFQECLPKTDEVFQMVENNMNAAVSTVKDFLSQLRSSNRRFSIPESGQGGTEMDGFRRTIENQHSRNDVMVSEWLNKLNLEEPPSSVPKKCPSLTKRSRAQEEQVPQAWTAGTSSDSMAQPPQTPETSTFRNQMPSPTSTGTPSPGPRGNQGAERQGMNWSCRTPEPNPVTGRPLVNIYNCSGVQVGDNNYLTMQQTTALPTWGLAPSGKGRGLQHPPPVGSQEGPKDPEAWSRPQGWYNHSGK
UniProt Q13546: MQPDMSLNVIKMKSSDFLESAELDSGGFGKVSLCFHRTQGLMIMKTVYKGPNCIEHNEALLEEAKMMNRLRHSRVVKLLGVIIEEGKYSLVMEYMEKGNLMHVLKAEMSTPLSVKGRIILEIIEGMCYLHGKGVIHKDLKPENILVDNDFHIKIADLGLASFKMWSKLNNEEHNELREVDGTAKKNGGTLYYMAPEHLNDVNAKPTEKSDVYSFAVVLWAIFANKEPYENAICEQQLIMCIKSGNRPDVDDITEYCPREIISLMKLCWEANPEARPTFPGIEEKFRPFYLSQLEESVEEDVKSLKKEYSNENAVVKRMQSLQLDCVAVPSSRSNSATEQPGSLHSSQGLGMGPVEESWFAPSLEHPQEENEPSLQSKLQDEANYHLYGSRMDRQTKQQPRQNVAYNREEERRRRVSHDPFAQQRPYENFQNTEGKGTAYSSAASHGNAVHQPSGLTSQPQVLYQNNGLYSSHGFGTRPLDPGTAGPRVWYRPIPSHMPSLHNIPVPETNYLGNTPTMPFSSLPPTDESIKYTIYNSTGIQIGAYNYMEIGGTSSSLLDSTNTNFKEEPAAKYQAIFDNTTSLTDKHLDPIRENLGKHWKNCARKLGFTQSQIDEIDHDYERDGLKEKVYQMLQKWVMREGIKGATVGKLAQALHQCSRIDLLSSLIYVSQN

Biological target: RIPK3 (UniProt Q9Y572)
Experiment: co-IP

For HA-RIPK1 (from UniProt Q13546 1-671), the binding was “binds”.
